Results deposited as PubChem BioAssay AID1224828 (NIAID, 2016).
This is a random part of about 17,000 reagents tested. 762 of all reagents (4.5%) count as active. 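Active calls include both raised and lowered p65 entry, mostly lowered; wells with fewer than 50 cells lack a z-score.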 The raw values are shown without normalisation. Reagents against one gene are numbered here.

Purpose: 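Knock-downs that increase or decrease LPS-induced p65 nuclear translocation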 (primary screen)
System: mouse RAW264.7 G9 macrophage reporter cells (GFP-p65, Tnf promoter-mCherry)
Reagent: siRNA pool against mouse genes, 100 nM
Timing: 2 days siRNA transfection, then 40 min LPS before fixation
Conditions: LPS (Salmonella minnesota R595) at 10 ng/ml
Read-out: 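Microscopy ratio of nuclear to perinuclear-ring GFP-p65 signal, scaled to the plate median; gene score is the average of two replicate robust z-scores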
Direction: p65 translocation robust z-score: higher = more nuclear NF-kappaB p65 after LPS than the plate median; nuclear/cytoplasmic p65 ratio: higher = more nuclear NF-kappaB p65
Active means: 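Active if robust z is above 3.3 (negative regulators) or below -1.56, the Tlr4 control median (positive regulators); activity score 50 or more; control wells not called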
Calls: active = hit (p65 shift raised or lowered); inactive = no clear change

The opening 2 entries, ahead of the listing:
gene symbol,reagent,p65 translocation robust z-score,"nuclear/cytoplasmic p65 ratio, rep 1","nuclear/cytoplasmic p65 ratio, rep 2",low cell count flag,activity call
Pcif1 (GeneID 228866),1,-1.89,1.35,1.17,enough cells to score,active
Tmem150b (GeneID 330460),1,0.47,1.68,1.88,enough cells to score,inactive

Results, repeating the preview:
gene symbol,reagent,p65 translocation robust z-score,"nuclear/cytoplasmic p65 ratio, rep 1","nuclear/cytoplasmic p65 ratio, rep 2",low cell count flag,activity call
Pcif1 (GeneID 228866),1,-1.89,1.35,1.17,enough cells to score,active
Tmem150b (GeneID 330460),1,0.47,1.68,1.88,enough cells to score,inactive
Polr1d (GeneID 20018),1,0.83,1.54,1.3,enough cells to score,inactive
Zfp595 (GeneID 218314),1,-0.71,1.32,1.4,enough cells to score,inactive
Cga (GeneID 12640),1,0.61,1.5,1.5,enough cells to score,inactive
Aktip (GeneID 14339),1,-0.67,1.39,1.24,enough cells to score,inactive
Endog (GeneID 13804),1,,1.49,1.34,fewer than 50 cells per well; well left out of scoring,inactive
Sorl1 (GeneID 20660),1,-1.1,1.39,1.39,enough cells to score,inactive
A830039N20Rik (GeneID 268723),1,0.73,1.52,1.58,enough cells to score,inactive
1700001F09Rik (GeneID 71826),1,,1.8,1.27,fewer than 50 cells per well; well left out of scoring,inactive
Lrrc40 (GeneID 67144),1,0.61,1.79,1.62,enough cells to score,inactive
Il12rb1 (GeneID 16161),1,0.02,1.47,1.35,enough cells to score,inactive
Zfp622 (GeneID 52521),1,-0.81,1.26,1.2,enough cells to score,inactive
Fgg (GeneID 99571),1,1.56,1.62,1.59,enough cells to score,inactive
Adtrp (GeneID 109254),1,,1.27,1.62,fewer than 50 cells per well; well left out of scoring,inactive
Il17f (GeneID 257630),1,0.1,1.58,1.43,enough cells to score,inactive
Mpp1 (GeneID 17524),1,-0.67,1.7,1.29,enough cells to score,inactive
Crls1 (GeneID 66586),1,0.92,1.77,1.48,enough cells to score,inactive
Hmox1 (GeneID 15368),1,-1.33,1.24,1.22,enough cells to score,inactive
Fgf8 (GeneID 14179),1,-0.4,1.37,1.33,enough cells to score,inactive
Cd302 (GeneID 66205),1,-0.46,1.5,1.59,enough cells to score,inactive
Cask (GeneID 12361),1,2.27,1.9,1.67,enough cells to score,inactive
Arhgap1 (GeneID 228359),1,0.01,1.61,1.63,enough cells to score,inactive
Kcnv1 (GeneID 67498),1,0.92,1.6,1.5,enough cells to score,inactive
Nectin3 (GeneID 58998),1,0.53,1.67,1.52,enough cells to score,inactive
Ankrd13b (GeneID 268445),1,-0.68,1.49,1.72,enough cells to score,inactive
Or5e1 (GeneID 258718),1,0.59,1.52,1.35,enough cells to score,inactive
Zfp105 (GeneID 22646),1,0.21,1.56,1.52,enough cells to score,inactive
Cfap184 (GeneID 66717),1,1.03,1.37,1.42,enough cells to score,inactive
Pabpc4 (GeneID 230721),1,,1.43,1.26,fewer than 50 cells per well; well left out of scoring,inactive
1810009N02Rik (GeneID 69099),1,0.23,1.33,1.54,enough cells to score,inactive
Mapk15 (GeneID 332110),1,1.23,1.58,1.72,enough cells to score,inactive
Slfn9 (GeneID 237886),1,,1.23,1.24,fewer than 50 cells per well; well left out of scoring,inactive
Pmm2 (GeneID 54128),1,-0.44,1.45,1.34,enough cells to score,inactive
Las1l (GeneID 76130),1,1.12,1.51,1.45,enough cells to score,inactive
Trmt9b (GeneID 319582),1,3.95,1.93,2.13,enough cells to score,active
Chrng (GeneID 11449),1,-0.72,1.4,1.26,enough cells to score,inactive
Ate1 (GeneID 11907),1,-0.18,1.58,1.49,enough cells to score,inactive
Ptger3 (GeneID 19218),1,,1.47,1.51,fewer than 50 cells per well; well left out of scoring,inactive
Abat (GeneID 268860),1,-0.46,1.51,1.58,enough cells to score,inactive
Sema3e (GeneID 20349),1,0,1.43,1.55,enough cells to score,inactive
Sema3e (GeneID 20349),2,,1.51,1.17,fewer than 50 cells per well; well left out of scoring,inactive
Reg3d (GeneID 30053),1,-0.03,1.61,1.37,enough cells to score,inactive
G3bp2 (GeneID 23881),1,1.43,1.68,1.52,enough cells to score,inactive
Lrrc1 (GeneID 214345),1,-1.62,1.51,1.27,enough cells to score,active
Fshb (GeneID 14308),1,-1.77,1.19,1.17,enough cells to score,active
H2ac25 (GeneID 319162),1,,1.31,1.14,fewer than 50 cells per well; well left out of scoring,inactive
Lsamp (GeneID 268890),1,1,1.84,1.72,enough cells to score,inactive
Zfp90 (GeneID 22751),1,1.53,1.62,1.42,enough cells to score,inactive
Lcn6 (GeneID 620709),1,-1.1,1.31,1.35,enough cells to score,inactive
Or1e33 (GeneID 259010),1,-0.37,1.61,1.32,enough cells to score,inactive
St3gal4 (GeneID 20443),1,,1.52,1.33,fewer than 50 cells per well; well left out of scoring,inactive
Ddx46 (GeneID 212880),1,0.24,1.55,1.63,enough cells to score,inactive
Dmrt2 (GeneID 226049),1,2.46,1.84,1.49,enough cells to score,inactive
Sec22c (GeneID 215474),1,-0.88,1.24,1.19,enough cells to score,inactive
Ankrd40 (GeneID 71452),1,,1.2,1.24,fewer than 50 cells per well; well left out of scoring,inactive
Pik3c2g (GeneID 18705),1,-2.16,1.22,1.2,enough cells to score,active
Serpinb9c (GeneID 20707),1,,1.41,1.21,fewer than 50 cells per well; well left out of scoring,inactive
Polr3d (GeneID 67065),1,-0.07,1.43,1.45,enough cells to score,inactive
